{
  "sequences": {"note": "Amino acid sequences for entries named in this document (tags omitted).", "UniProt Q8TED9": "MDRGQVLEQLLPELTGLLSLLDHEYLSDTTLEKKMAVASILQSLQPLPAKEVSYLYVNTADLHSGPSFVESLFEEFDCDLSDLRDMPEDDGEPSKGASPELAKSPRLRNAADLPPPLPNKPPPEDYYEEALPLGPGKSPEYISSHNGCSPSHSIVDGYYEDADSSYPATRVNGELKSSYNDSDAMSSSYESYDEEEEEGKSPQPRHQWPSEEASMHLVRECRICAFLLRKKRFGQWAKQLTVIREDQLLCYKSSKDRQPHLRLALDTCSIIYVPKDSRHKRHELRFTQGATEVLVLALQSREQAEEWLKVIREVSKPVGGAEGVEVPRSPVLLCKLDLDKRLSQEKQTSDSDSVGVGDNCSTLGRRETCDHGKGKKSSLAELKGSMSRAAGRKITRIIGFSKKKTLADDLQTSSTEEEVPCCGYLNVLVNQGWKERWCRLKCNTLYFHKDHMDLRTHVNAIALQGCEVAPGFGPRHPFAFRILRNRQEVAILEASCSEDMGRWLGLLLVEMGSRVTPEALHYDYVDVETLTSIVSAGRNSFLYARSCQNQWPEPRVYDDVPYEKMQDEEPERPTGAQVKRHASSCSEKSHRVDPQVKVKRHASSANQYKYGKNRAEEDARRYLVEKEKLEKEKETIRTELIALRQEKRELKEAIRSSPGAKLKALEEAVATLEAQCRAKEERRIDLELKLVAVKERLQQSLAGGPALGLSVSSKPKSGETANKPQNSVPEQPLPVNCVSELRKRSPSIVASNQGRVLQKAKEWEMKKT"},
  "source": "paper PMC9835296",
  "molecular_target": "Actin filament associated protein 1 like 1 (human (endogenous in AGS)) (UniProt Q8TED9)",
  "assay": "co-IP; AGS cell lysate; 1000 ug protein incubated with 10 ug IP antibody (AFAP1L1 or VAV2) or control IgG at 4 °C overnight; magnetic beads (Pierce Classic Magnetic IP/Co-IP Kit), 1 h at room temperature; eluate analysed by western blot",
  "note": "Results are given in words; binding and its absence hold for the method and conditions named. In cells and extracts the contact can be indirect. Some results given as binding are weak or reduced against the parent protein; the word gives no strength.",
  "data": [
    {"binder": "VAV guanine nucleotide exchange factor 2 (protein, UniProt P52735 1-878) MEQWRQCGRWLIDCKVLPPNHRVVWPSAVVFDLAQALRDGVLLCQLLHNLSPGSIDLKDINFRPQMSQFLCLKNIRTFLKVCHDKFGLRNSELFDPFDLFDVRDFGKVISAVSRLSLHSIAQNKGIRPFPSEETTENDDDVYRSLEELADEHDLGEDIYDCVPCEDGGDDIYEDIIKVEVQQPMIRYMQKMGMTEDDKRNCCLLEIQETEAKYYRTLEDIEKNYMSPLRLVLSPADMAAVFINLEDLIKVHHSFLRAIDVSVMVGGSTLAKVFLDFKERLLIYGEYCSHMEHAQNTLNQLLASREDFRQKVEECTLKVQDGKFKLQDLLVVPMQRVLKYHLLLKELLSHSAERPERQQLKEALEAMQDLAMYINEVKRDKETLRKISEFQSSIENLQVKLEEFGRPKIDGELKVRSIVNHTKQDRYLFLFDKVVIVCKRKGYSYELKEIIELLFHKMTDDPMNNKDVKKSHGKMWSYGFYLIHLQGKQGFQFFCKTEDMKRKWMEQFEMAMSNIKPDKANANHHSFQMYTFDKTTNCKACKMFLRGTFYQGYMCTKCGVGAHKECLEVIPPCKFTSPADLDASGAGPGPKMVAMQNYHGNPAPPGKPVLTFQTGDVLELLRGDPESPWWEGRLVQTRKSGYFPSSSVKPCPVDGRPPISRPPSREIDYTAYPWFAGNMERQQTDNLLKSHASGTYLIRERPAEAERFAISIKFNDEVKHIKVVEKDNWIHITEAKKFDSLLELVEYYQCHSLKESFKQLDTTLKYPYKSRERSASRASSRSPASCASYNFSFLSPQGLSFASQGPSAPFWSVFTPRVIGTAVARYNFAARDMRELSLREGDVVRIYSRIGGDQGWWKGETNGRIGWFPSTYVEEEGIQ", "values": [
      {"measurement": "binding", "value": "binds"}
    ]}
  ]
}
